Measured values taken from patent CN117024592A.
Results are given in words; binding and its absence hold for the method and conditions named. Some binding calls cover weakened binding; strength is not graded here. For some assays here: Where a sequence is shown, tags or fusion partners need not be part of it.

Columns and labels:
人源B7H3(细胞表面表达) (human) = molecular target: T1, 人源B7H3(细胞表面表达) (human) (UniProt Q5ZPR3); assay: flow cytometry on CHO cells stably expressing B7H3
T1 sequence (looked up): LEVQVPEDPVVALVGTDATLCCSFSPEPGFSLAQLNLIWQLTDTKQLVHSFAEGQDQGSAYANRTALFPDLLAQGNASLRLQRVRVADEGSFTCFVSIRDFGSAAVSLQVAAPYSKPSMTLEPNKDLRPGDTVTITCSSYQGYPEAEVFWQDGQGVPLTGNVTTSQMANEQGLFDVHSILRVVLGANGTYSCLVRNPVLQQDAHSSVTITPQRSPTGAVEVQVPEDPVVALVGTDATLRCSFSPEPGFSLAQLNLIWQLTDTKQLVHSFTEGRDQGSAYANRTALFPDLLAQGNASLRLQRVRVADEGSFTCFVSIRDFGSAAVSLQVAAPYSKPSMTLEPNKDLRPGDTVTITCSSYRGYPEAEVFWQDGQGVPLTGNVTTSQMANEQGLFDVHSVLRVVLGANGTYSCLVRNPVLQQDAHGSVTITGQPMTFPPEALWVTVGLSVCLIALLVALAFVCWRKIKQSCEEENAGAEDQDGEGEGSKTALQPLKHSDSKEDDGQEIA

B7H3-His重组蛋白 (human) = molecular target: T2, B7H3-His重组蛋白 (human) (UniProt Q5ZPR3); assay: SPR (Biacore), B7H3-His amine-coupled to CM5 chip, antibody as analyte
T2 sequence (looked up): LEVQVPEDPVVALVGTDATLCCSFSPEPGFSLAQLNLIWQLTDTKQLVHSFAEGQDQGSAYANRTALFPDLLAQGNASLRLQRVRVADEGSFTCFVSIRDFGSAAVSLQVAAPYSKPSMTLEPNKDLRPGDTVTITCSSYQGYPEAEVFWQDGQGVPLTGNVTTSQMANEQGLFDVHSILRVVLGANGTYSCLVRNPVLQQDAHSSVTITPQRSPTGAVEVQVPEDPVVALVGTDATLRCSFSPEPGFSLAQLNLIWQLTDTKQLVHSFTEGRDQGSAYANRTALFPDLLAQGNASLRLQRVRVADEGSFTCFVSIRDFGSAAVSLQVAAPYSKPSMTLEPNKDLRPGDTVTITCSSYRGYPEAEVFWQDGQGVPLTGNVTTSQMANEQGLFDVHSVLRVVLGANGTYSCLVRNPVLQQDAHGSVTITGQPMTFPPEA

binding (人源B7H3(细胞表面表达) (human)): binds
binding (B7H3-His重组蛋白 (human)): binds
B1: 人源化单抗huJ65-1 (antibody, V domains shown)
VH: EVQLVESGGGLVQPGGSLRLSCAASGFTFSSHGMHWVRQAPGKGLEWVAVISGGGRYSYYADSVKGRFTISRDNAKNSLYLQMNSLRAEDTAVYYCARHWDGYLDYWGQGTLVTVSS
VL: DIQMTQSPSSLSASVGDRVTITCRASQNIYSYLAWYQQKPGKAPKLLIYNAKTLTEGVPSRFSGSGSGTDFTLTISSLQPEDFATYYCQQHHYGPPPYTFGQGTKVEIK
